Laboratory results published in paper PMC8887472.
No constants are given. Whether binding was seen depends on the method and setting. Binding seen in cells or lysates may run through a third protein. Some entries that bind do so weakly or less than the wild type.

Sequences of proteins named here, by UniProt entry; tags and fusion partners are left off.
UniProt P0CAP2: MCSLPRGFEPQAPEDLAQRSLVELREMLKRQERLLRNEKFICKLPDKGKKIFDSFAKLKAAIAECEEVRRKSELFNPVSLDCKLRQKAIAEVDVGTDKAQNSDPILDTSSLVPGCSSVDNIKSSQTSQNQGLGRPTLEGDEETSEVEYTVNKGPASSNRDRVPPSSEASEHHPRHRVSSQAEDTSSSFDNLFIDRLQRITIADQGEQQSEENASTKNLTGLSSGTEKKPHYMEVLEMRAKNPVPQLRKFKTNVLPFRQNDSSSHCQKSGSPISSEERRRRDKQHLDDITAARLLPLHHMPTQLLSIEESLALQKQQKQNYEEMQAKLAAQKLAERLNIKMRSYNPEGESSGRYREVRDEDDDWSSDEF
UniProt Q8IXW5: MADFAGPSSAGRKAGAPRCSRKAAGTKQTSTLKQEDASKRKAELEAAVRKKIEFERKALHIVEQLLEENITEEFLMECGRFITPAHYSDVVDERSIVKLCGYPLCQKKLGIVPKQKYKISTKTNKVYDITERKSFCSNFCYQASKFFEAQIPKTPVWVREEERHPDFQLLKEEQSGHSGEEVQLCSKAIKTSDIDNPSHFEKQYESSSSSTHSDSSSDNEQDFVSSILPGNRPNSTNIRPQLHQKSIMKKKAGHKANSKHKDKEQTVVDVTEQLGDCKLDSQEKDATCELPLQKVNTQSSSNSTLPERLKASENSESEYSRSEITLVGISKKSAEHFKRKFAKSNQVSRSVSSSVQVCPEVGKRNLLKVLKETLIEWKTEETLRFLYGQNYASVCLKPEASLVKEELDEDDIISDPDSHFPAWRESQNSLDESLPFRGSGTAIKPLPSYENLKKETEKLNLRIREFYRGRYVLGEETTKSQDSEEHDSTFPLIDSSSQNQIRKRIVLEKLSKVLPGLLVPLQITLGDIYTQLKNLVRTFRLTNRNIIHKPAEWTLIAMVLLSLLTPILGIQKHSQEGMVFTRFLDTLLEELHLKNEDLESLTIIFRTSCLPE

Biological target: eGFP-TEV-Gdown1 (human (endogenous in HAP1)) (UniProt P0CAP2)
Experiment: co-IP; GFP-Trap agarose IP from clarified lysate of eGFP-TEV-Gdown1 HAP1 cells (20 mM Tris pH 7.8, 150 mM NaCl, 0.5% IGEPAL CA-360), 1 h at 4°C, three washes; silver staining and RPAP2 western blot

binding: binds
Substance: RPAP2 (from UniProt Q8IXW5 1-612)
